Measured values published in paper PMC11180178.
No constants are given. Whether binding was seen depends on the method and setting. In cells and extracts the contact can be indirect. Some entries that bind do so weakly or less than the wild type. For some of these results: Sequences can lack the tags named with a protein. Each block holds one molecule with its values, some of them ahead of it.

Protein sequences, listed by entry. Tags and fused reporters are not part of them. Residues count along the entry.
UniProt P30532, residues 23-468: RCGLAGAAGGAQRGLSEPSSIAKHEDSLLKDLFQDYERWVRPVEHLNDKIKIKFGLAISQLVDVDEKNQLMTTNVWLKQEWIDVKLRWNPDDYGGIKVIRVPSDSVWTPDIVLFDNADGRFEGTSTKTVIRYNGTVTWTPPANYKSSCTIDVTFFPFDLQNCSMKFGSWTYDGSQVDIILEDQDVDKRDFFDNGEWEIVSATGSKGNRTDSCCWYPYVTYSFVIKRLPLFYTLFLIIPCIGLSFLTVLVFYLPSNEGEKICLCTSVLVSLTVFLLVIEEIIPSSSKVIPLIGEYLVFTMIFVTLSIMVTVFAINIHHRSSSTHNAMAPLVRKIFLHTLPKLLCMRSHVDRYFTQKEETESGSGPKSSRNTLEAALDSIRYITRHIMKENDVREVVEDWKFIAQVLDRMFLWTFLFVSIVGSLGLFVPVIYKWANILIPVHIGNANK

Key:
HA-labelled RABL6 = biological target: T1, HA-labelled RABL6 (UniProt Q3YEC7); test: co-IP; CHRNA5 co-transfected with HA-labelled RABL6, RABL6-39-279aa or RABL6-281-729aa into 293 T cells; lysates precipitated with anti-HA or anti-CHRNA5 antibodies
T1 sequence: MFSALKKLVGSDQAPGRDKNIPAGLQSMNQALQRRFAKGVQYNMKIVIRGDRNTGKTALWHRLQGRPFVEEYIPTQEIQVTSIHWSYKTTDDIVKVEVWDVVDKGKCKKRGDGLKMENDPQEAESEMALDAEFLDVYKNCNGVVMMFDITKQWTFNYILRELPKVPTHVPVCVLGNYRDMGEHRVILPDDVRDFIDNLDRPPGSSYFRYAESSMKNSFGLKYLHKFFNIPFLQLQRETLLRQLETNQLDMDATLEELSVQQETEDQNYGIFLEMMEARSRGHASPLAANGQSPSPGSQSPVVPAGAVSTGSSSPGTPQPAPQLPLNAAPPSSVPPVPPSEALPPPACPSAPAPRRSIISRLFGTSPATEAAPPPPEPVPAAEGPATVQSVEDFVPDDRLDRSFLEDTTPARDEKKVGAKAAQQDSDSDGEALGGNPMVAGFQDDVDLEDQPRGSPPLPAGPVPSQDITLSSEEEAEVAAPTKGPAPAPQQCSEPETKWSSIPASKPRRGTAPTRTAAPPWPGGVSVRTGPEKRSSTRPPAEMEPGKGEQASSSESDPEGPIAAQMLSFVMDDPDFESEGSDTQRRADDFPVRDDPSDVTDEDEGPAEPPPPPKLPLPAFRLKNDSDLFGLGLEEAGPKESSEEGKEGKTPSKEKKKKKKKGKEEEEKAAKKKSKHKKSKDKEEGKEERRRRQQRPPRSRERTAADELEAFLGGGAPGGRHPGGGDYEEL

CHRNA5 in 293 T cells = CHRNA5 in 293 T cells (UniProt P30532); test: as above
[1] = biological target: cholinergic receptor nicotinic alpha 5 subunit (CHRNA5) (human (endogenous in AMC-HN8 and FD-LSC-1)) (UniProt P30532); test: co-IP; endogenous proteins; whole-cell extracts of AMC-HN8 and FD-LSC-1 cells (sh-NC and sh-CHRNA5); primary antibody and protein A/G beads overnight at 4 °C; IgG as negative control; western blot

Molecule: CHRNA5 in 293 T cells (from UniProt P30532 23-468) (receptor)
binding (HA-labelled RABL6): binds

B2: HA-labelled RABL6 (protein, UniProt Q3YEC7 1-729)
chain: T1 sequence
binding (CHRNA5 in 293 T cells): binds

Now from value to molecule:

binding (CHRNA5 in 293 T cells): binds
B1: RABL6-39-279aa (domain or fragment, UniProt Q3YEC7 39-279)
chain: GVQYNMKIVIRGDRNTGKTALWHRLQGRPFVEEYIPTQEIQVTSIHWSYKTTDDIVKVEVWDVVDKGKCKKRGDGLKMENDPQEAESEMALDAEFLDVYKNCNGVVMMFDITKQWTFNYILRELPKVPTHVPVCVLGNYRDMGEHRVILPDDVRDFIDNLDRPPGSSYFRYAESSMKNSFGLKYLHKFFNIPFLQLQRETLLRQLETNQLDMDATLEELSVQQETEDQNYGIFLEMMEARS

binding [1]: binds
B3: RABL6 (protein, UniProt Q3YEC7 1-729)
chain: T1 sequence
